US7723391B2, “Cyclopropyl aryl amide derivatives and uses thereof” (Roche Palo Alto LLC, priority 2007, dated 2010)
For at least one compound, name, drawing or mass did not settle the structure.

The chains behind the UniProt entries cited, without tags or fusion partners. Residues count along the entry.
UniProt P36544, 23-502: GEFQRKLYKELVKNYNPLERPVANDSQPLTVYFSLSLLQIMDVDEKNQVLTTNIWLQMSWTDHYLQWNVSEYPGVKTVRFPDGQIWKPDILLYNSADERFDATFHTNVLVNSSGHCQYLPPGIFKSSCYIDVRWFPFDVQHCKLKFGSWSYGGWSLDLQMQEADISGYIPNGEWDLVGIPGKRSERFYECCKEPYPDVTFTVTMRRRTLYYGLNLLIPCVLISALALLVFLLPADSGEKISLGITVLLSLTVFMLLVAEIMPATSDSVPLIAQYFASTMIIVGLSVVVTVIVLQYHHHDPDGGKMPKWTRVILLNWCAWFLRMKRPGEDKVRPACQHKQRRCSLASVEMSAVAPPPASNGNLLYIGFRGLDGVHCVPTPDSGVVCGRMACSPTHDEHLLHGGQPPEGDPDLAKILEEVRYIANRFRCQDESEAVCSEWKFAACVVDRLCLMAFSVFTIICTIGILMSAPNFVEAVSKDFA

Molecular target: T1, human nicotinic alpha7 WT receptor (Homo sapiens, UniProt P36544)
T1 construct: expressed in transfected cells; host or cells: GH4C1 cells (rat pituitary-derived cell line), RPA clone #34.7
Assay: Nicotinic Alpha 7 Modulation Assay (FLIPR, cytosolic Ca2+)
Assay type: cell-based
Conditions: GH4C1 cells expressing human alpha7 nAChR, FLUO-3 fluorescence

With COc1ccc(Cl)cc1C(=O)N[C@H]1[C@H](c2ccc(S(N)(=O)=O)cc2)C1(C)C [Compound 4, 5-Chloro-N-[(1S,3R)-2,2-dimethyl-3-(4-sulfamoyl-phenyl)-cyclopropyl]-2-methoxy-benzamide] the positive allosteric modulation (response after second addition of ACh 30 μM) was 469.6 and the intrinsic activity (response after test compound addition) was 493.6.
